Reference: paper doi:10.1101/336578
No constants are given. Whether binding was seen depends on the method and setting. Some results given as binding are weak or reduced against the parent protein; the word gives no strength.

Chains of the proteins cited; added tags and fusions are not shown. Lines headed by an entry give the natural chain unless they say otherwise; changes in a name come on top.
UniProt P07149: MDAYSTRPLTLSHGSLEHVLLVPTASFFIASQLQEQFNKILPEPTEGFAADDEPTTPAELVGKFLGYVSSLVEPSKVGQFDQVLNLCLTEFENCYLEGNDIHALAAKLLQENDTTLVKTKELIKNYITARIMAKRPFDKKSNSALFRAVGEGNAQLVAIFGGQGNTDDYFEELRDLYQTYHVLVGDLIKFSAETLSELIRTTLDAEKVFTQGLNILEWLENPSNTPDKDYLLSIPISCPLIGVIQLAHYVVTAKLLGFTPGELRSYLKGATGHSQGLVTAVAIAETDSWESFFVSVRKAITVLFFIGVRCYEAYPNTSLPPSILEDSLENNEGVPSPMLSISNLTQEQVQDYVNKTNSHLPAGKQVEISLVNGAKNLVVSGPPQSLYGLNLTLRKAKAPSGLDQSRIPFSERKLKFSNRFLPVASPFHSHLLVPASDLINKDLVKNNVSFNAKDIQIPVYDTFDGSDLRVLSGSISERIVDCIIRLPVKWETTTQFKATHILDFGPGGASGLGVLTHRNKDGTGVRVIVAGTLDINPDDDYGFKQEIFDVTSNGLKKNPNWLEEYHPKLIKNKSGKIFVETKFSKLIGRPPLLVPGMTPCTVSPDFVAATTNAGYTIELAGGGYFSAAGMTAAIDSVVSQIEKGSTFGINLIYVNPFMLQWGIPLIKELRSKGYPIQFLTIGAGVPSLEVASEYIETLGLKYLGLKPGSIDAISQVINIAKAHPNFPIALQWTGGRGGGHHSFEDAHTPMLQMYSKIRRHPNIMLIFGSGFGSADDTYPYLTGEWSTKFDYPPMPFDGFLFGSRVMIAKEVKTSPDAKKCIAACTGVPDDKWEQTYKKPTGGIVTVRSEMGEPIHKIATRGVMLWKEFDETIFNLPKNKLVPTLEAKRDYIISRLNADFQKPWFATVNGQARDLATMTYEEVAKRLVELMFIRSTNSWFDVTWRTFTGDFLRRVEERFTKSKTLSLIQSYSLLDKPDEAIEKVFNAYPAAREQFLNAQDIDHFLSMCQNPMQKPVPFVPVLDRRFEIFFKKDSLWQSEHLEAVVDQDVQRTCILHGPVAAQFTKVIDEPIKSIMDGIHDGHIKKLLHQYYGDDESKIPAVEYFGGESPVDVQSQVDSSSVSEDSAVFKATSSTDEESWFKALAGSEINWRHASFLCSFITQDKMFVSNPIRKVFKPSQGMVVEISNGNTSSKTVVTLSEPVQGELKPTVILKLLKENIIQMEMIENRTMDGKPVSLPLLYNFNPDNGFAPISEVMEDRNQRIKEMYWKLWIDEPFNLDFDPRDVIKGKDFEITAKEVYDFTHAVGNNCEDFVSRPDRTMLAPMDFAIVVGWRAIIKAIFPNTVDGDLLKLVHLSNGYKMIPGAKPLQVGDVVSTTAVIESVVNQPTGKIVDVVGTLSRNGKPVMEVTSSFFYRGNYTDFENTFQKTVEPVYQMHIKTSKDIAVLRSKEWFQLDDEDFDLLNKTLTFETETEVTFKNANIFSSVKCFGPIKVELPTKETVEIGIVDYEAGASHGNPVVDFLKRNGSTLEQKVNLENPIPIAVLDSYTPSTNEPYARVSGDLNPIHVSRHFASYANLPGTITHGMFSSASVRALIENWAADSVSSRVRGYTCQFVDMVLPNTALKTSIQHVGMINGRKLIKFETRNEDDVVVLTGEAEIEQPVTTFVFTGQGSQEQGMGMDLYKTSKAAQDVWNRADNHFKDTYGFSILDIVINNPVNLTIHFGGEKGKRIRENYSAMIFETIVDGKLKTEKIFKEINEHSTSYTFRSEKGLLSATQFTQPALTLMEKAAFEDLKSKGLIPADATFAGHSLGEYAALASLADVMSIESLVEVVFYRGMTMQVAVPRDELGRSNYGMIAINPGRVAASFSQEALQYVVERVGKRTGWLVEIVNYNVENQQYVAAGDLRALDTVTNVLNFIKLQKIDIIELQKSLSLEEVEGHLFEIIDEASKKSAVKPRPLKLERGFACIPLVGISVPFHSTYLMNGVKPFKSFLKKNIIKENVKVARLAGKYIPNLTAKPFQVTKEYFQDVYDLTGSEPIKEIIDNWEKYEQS
UniProt P19097: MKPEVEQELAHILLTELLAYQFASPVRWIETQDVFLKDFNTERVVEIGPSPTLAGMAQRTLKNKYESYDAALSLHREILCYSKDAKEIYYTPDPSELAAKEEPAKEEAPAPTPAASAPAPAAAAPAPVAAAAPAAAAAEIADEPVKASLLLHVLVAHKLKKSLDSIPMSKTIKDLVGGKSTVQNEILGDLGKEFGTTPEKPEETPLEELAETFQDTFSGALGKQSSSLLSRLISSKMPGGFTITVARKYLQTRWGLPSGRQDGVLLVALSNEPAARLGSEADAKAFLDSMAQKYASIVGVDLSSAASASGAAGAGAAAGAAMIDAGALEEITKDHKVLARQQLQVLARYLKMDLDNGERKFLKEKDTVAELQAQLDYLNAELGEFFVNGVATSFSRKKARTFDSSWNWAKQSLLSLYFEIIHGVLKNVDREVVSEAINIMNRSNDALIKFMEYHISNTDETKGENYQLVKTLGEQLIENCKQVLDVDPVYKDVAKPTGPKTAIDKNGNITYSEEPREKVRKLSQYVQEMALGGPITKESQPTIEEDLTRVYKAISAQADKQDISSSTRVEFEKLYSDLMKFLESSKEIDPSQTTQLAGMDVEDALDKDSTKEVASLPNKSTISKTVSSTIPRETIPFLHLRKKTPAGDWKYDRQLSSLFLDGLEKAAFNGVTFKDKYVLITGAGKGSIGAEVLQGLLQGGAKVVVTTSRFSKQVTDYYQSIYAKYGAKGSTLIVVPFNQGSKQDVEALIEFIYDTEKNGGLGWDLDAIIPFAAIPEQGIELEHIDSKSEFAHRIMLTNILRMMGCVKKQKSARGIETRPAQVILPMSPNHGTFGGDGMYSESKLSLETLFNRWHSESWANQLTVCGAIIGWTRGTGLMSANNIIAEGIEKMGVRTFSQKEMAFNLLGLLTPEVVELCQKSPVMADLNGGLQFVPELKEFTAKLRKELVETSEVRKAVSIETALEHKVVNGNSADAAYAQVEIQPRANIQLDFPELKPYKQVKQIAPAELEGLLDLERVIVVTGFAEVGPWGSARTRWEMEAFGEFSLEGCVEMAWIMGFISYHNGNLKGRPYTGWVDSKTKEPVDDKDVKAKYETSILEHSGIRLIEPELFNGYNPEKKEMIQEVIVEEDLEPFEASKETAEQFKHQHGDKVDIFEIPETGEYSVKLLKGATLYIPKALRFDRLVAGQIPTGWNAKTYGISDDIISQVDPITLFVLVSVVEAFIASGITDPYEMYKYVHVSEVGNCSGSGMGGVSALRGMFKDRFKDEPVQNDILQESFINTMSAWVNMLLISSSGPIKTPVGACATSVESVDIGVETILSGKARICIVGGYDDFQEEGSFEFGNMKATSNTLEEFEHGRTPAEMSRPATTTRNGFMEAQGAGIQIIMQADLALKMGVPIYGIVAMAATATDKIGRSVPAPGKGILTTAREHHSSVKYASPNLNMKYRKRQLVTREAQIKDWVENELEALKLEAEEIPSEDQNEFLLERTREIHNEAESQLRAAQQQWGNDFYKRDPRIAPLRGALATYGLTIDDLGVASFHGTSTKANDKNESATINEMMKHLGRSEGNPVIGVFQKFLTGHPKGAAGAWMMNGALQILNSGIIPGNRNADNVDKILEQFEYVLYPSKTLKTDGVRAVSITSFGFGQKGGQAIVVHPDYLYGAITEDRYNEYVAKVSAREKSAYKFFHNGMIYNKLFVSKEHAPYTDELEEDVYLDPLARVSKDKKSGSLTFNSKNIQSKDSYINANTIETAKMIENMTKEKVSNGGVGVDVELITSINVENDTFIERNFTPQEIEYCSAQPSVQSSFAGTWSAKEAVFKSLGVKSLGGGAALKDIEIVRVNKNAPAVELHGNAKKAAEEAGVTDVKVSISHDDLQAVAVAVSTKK

Biological target: S. cerevisiae FAS β-chain, wildtype (FAS1-encoded polypeptide) (S. cerevisiae) (UniProt P07149)
Test: native gel or EMSA

Row | binding | Substance
1 | binds | S. cerevisiae FAS α-chain, phosphopantetheinylation-deficient S180A (from UniProt P19097 1-1887)
2 | binds | S. cerevisiae FAS α-chain, wildtype (FAS2-encoded polypeptide) (from UniProt P19097 1-1887)
